Results deposited as PubChem BioAssay AID1259254 (NCATS, 2017).
Aim: 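Genome-wide screen for genes that prevent DNA re-replication in cancer cells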 (primary screen). Cells: human HCT116 colorectal cancer cells. Knock-down reagent: single siRNA against human genes. Time to read-out: 3 days. Detection: 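Imaged Hoechst DNA stain sorts each cell into a cycle phase by DNA amount; per plate, G2 fraction set to 0% for non-targeting and 100% for GMNN siRNA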. Scale: G2 robust z-score: higher = more G2 cells, more excess DNA replication. Call rule: 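Active siRNAs have a G2 robust z of 5 or more median absolute deviations over the median, which in these data means about 38% or higher of GMNN control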.
In all, the deposit lists about 59,000 reagents; this is a random part of them. About 1,550 of them (2.6%) were called active. 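G2 share is only a proxy for re-replication; each gene was hit by three separate siRNAs, and active genes were retested.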 Unmarked entries are inactive. The numbers tell different reagents against one gene apart. Not all columns of the deposit are shown. Not stated in the record: the amount of reagent.

Silencing of STARD7 (StAR related lipid transfer domain containing 7) #1 gave: G2 robust z-score 1.7. Against STARD7 (StAR related lipid transfer domain containing 7) #2 the deposit lists G2 robust z-score 2.05. STARD7 (StAR related lipid transfer domain containing 7) #3 scored G2 robust z-score 1.2. After knock-down of GLCE (glucuronic acid epimerase) #1, the screen gave G2 robust z-score -0.699. After knock-down of GLCE (glucuronic acid epimerase) #2, the record shows G2 robust z-score -0.806. For GLCE (glucuronic acid epimerase) #3, the entry reads G2 robust z-score 4.77.

Depletion of AMY2B (amylase alpha 2B) #1 resulted in: G2 robust z-score 4.21. Against AMY2B (amylase alpha 2B) #2, the values are G2 robust z-score 1.36. AMY2B (amylase alpha 2B) #3 scored G2 robust z-score -0.145. Silencing of DBNDD1 (dysbindin domain containing 1) #1 came out at: G2 robust z-score 0.0945. After knock-down of DBNDD1 (dysbindin domain containing 1) #2, the record shows G2 robust z-score 1.04. With knock-down of DBNDD1 (dysbindin domain containing 1) #3, the screen gave G2 robust z-score 0.529.

CD163L1 (CD163 molecule like 1) #1 scored G2 robust z-score -1.15. CD163L1 (CD163 molecule like 1) #2 showed G2 robust z-score -0.473. For CD163L1 (CD163 molecule like 1) #3, the entry reads G2 robust z-score 4.16. Knock-down of C10orf55 (chromosome 10 putative open reading frame 55) #1 resulted in: G2 robust z-score -0.00736. Silencing of C10orf55 (chromosome 10 putative open reading frame 55) #2 resulted in: G2 robust z-score 0.0952. With knock-down of C10orf55 (chromosome 10 putative open reading frame 55) #3, the screen gave G2 robust z-score 0.871.

4 of these entries, set out differently.
GLCE (glucuronic acid epimerase) #1
- G2 robust z-score: -0.699

GLCE (glucuronic acid epimerase) #2
- G2 robust z-score: -0.806

GLCE (glucuronic acid epimerase) #3
- G2 robust z-score: 4.77

AMY2B (amylase alpha 2B) #1
- G2 robust z-score: 4.21

The list goes on:
TIMM10B (translocase of inner mitochondrial membrane 10B) #1 scored G2 robust z-score 6.93 (active). With knock-down of TIMM10B (translocase of inner mitochondrial membrane 10B) #2 the results were G2 robust z-score -0.402. After knock-down of TIMM10B (translocase of inner mitochondrial membrane 10B) #3, the screen gave G2 robust z-score -0.114. With knock-down of SLC28A3 #1, the screen gave G2 robust z-score 1.04. For SLC28A3 #2, the values are G2 robust z-score 1.15. Silencing of SLC28A3 #3 came out at: G2 robust z-score -0.32.

With knock-down of SLC60A2 #1, the screen gave G2 robust z-score 6.62 (active). For SLC60A2 #2, the entry reads G2 robust z-score -0.853. For SLC60A2 #3 the deposit lists G2 robust z-score -0.0151. For HSPA1A (heat shock protein family A (Hsp70) member 1A) #1 the deposit lists G2 robust z-score -0.862. With knock-down of HSPA1A (heat shock protein family A (Hsp70) member 1A) #2, the screen gave G2 robust z-score 0.243. HSPA1A (heat shock protein family A (Hsp70) member 1A) #3 showed G2 robust z-score 0.967.
